Assay results taken from PMC10666023.
No constants are given. Whether binding was seen depends on the method and setting. Some binding calls cover weakened binding; strength is not graded here.

Amino acid sequences for entries named in this document (tags omitted). A change or cut given only in a name is not applied to a line headed by its entry. Chains listed by the source or under a name are the forms on record and can include a tag or linker.
UniProt Q6NZQ4: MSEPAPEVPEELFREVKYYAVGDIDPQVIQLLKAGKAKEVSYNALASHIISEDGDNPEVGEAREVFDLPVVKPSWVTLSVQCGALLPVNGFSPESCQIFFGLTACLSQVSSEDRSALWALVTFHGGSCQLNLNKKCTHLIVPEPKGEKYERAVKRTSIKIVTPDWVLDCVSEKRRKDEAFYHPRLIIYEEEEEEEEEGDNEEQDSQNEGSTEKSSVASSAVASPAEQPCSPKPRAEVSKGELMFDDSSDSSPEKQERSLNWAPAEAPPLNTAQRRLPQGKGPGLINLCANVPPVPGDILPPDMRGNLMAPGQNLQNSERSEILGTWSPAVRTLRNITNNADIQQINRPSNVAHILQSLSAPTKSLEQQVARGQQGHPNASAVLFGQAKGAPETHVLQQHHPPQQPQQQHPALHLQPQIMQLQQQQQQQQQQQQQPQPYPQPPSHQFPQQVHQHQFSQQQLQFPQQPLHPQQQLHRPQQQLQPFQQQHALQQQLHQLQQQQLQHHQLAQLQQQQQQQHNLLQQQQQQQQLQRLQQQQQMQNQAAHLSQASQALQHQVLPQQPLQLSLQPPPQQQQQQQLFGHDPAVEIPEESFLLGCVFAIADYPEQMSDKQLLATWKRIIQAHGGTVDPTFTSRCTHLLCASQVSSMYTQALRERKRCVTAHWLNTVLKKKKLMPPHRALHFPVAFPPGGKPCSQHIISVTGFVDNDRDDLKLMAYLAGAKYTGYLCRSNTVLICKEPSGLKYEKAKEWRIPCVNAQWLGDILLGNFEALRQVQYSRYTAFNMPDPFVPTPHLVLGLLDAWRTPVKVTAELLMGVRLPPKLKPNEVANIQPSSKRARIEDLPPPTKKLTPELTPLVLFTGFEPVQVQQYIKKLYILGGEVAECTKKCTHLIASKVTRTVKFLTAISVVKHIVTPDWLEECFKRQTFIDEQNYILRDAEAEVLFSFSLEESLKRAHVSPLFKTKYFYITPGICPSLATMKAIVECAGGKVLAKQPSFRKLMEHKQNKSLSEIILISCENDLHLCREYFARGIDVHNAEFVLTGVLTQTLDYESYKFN
UniProt A0A140LI88: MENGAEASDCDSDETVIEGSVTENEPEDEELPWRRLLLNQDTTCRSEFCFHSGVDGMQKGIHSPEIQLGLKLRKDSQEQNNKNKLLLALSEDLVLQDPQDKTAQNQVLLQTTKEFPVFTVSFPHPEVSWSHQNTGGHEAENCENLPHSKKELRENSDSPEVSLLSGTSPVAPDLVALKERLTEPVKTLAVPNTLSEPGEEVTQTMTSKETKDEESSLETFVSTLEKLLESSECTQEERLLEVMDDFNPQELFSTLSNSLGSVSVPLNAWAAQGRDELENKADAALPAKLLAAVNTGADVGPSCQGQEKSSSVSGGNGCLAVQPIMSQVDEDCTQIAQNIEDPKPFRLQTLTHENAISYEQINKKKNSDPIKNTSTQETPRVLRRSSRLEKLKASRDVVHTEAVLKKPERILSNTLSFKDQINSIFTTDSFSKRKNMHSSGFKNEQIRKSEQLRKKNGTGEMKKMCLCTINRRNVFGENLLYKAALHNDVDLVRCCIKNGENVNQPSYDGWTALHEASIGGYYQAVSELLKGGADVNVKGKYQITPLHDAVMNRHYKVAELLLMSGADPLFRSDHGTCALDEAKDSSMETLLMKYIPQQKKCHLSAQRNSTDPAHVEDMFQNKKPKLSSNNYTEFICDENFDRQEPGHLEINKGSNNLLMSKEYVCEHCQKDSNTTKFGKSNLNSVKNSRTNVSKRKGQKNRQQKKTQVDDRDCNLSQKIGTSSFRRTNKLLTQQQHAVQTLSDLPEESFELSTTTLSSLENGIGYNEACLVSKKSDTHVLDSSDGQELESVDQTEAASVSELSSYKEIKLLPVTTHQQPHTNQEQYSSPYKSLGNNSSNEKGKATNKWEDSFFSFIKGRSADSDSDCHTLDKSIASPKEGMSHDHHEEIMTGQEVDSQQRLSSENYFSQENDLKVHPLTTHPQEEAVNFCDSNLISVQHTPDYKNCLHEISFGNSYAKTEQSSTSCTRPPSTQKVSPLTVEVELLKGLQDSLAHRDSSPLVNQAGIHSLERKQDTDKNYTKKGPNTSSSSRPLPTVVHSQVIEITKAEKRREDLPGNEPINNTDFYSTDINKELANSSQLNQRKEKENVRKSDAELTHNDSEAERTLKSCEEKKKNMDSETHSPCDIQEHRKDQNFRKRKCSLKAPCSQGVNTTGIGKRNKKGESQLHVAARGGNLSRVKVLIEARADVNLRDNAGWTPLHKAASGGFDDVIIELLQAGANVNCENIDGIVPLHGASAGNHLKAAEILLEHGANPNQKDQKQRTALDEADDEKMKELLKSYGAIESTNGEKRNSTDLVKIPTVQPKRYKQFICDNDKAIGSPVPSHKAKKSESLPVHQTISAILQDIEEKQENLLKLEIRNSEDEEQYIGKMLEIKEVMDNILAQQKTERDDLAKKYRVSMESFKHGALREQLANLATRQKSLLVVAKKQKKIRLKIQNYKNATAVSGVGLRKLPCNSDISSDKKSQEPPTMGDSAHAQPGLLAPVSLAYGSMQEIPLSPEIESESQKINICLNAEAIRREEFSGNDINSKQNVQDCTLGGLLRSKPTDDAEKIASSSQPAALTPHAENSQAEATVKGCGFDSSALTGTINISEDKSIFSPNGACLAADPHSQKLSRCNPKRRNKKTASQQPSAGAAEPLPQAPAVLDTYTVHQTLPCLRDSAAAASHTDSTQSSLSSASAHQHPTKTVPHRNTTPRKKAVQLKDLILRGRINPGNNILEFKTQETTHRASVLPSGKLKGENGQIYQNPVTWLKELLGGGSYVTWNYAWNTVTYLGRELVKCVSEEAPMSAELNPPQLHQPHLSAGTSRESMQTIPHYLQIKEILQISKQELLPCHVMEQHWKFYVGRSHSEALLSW
ANKRD31-EA, full-length ANKRD31 with alanine substituted for Glu-1831 (A0A140LI88, form named): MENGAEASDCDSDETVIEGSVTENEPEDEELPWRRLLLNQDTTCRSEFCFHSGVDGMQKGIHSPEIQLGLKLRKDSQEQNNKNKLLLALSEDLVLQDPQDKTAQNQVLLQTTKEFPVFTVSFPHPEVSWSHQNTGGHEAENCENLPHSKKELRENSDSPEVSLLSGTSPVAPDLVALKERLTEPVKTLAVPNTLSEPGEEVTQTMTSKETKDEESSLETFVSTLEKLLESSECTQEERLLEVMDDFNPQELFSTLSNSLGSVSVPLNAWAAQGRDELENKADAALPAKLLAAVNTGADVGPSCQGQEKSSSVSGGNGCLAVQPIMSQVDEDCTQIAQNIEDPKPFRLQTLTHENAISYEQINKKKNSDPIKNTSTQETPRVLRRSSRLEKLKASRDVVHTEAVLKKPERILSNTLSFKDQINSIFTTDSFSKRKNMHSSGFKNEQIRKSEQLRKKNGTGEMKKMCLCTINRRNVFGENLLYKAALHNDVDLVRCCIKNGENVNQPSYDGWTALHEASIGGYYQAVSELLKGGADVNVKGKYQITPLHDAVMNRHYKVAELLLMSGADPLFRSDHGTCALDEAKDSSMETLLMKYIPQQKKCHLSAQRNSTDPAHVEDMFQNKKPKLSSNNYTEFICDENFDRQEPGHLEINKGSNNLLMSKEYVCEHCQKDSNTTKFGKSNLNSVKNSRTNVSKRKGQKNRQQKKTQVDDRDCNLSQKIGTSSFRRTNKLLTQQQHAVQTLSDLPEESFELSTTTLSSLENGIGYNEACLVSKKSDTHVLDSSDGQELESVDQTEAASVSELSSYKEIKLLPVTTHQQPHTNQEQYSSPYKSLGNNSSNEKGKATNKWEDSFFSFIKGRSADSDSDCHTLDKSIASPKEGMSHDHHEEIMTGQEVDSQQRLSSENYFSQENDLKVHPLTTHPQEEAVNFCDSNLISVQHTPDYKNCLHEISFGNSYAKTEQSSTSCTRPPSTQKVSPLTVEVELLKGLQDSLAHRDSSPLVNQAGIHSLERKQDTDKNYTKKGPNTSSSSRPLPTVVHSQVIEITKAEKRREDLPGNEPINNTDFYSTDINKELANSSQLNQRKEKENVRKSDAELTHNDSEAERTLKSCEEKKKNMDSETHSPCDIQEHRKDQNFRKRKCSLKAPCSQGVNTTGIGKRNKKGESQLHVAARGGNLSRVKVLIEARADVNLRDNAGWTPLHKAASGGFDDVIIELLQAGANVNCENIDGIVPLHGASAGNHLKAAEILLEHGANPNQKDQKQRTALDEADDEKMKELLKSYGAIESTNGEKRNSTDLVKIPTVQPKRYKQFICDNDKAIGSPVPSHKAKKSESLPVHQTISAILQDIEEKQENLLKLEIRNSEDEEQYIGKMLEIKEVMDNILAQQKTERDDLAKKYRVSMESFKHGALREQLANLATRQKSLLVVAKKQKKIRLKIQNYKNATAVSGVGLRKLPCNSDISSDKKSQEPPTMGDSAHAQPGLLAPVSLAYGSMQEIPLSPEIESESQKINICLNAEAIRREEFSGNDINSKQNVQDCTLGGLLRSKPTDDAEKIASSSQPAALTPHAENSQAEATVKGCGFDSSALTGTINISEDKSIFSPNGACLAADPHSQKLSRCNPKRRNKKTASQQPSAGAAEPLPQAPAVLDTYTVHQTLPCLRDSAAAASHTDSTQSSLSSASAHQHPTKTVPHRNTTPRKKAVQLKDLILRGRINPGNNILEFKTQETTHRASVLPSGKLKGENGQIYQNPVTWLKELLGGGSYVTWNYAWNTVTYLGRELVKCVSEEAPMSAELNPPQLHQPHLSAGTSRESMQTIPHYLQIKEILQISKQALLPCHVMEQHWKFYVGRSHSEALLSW

Tests used:
PTIP = PTIP (UniProt Q6NZQ4); assay: two-hybrid; yeast two-hybrid of full-length ANKRD31 (wild type, EA, ΔC) as Gal4 AD and BD fusions with full-length or parts of REC114, MEI1, PTIP, ZMYM3; selection by amino acid dropouts and aureobasidin at moderate (+) and high (++) stringency
MEI1 = molecular target: T1, MEI1 (UniProt Q9D4I2); assay: as above
T1 sequence: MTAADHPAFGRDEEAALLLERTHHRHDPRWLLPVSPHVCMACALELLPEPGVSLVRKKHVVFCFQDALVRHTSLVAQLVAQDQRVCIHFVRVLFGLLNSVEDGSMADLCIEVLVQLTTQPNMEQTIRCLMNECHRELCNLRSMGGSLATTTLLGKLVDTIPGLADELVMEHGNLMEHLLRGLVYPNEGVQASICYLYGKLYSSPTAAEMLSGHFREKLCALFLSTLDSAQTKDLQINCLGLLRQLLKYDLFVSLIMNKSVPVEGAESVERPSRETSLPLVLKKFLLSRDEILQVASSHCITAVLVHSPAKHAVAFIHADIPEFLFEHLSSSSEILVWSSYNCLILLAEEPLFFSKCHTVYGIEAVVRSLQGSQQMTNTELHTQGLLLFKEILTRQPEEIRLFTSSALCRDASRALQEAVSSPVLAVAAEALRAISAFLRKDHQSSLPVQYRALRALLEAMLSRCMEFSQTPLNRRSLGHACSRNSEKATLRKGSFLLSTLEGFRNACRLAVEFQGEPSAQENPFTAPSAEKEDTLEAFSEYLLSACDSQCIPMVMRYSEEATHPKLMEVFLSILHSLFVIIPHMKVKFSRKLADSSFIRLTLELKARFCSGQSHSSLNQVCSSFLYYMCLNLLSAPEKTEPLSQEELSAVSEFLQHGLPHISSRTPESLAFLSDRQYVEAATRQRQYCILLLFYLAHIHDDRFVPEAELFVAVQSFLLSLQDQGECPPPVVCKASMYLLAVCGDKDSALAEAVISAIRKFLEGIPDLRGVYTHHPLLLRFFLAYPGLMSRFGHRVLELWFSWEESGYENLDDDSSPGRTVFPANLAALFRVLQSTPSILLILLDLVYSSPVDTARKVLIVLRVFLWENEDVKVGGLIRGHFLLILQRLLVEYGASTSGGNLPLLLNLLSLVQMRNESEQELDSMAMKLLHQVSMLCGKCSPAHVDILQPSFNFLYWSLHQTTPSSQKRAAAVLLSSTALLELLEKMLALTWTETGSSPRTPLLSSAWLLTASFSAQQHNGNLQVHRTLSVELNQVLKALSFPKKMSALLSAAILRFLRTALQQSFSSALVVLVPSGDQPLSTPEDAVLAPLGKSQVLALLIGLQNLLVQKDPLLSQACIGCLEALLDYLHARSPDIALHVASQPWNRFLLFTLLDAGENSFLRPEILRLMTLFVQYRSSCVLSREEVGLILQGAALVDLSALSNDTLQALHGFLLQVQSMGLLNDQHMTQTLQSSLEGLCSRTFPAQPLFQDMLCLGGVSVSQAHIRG

ZMYM3 = molecular target: T2, ZMYM3 (UniProt Q9JLM4); assay: as above
T2 sequence: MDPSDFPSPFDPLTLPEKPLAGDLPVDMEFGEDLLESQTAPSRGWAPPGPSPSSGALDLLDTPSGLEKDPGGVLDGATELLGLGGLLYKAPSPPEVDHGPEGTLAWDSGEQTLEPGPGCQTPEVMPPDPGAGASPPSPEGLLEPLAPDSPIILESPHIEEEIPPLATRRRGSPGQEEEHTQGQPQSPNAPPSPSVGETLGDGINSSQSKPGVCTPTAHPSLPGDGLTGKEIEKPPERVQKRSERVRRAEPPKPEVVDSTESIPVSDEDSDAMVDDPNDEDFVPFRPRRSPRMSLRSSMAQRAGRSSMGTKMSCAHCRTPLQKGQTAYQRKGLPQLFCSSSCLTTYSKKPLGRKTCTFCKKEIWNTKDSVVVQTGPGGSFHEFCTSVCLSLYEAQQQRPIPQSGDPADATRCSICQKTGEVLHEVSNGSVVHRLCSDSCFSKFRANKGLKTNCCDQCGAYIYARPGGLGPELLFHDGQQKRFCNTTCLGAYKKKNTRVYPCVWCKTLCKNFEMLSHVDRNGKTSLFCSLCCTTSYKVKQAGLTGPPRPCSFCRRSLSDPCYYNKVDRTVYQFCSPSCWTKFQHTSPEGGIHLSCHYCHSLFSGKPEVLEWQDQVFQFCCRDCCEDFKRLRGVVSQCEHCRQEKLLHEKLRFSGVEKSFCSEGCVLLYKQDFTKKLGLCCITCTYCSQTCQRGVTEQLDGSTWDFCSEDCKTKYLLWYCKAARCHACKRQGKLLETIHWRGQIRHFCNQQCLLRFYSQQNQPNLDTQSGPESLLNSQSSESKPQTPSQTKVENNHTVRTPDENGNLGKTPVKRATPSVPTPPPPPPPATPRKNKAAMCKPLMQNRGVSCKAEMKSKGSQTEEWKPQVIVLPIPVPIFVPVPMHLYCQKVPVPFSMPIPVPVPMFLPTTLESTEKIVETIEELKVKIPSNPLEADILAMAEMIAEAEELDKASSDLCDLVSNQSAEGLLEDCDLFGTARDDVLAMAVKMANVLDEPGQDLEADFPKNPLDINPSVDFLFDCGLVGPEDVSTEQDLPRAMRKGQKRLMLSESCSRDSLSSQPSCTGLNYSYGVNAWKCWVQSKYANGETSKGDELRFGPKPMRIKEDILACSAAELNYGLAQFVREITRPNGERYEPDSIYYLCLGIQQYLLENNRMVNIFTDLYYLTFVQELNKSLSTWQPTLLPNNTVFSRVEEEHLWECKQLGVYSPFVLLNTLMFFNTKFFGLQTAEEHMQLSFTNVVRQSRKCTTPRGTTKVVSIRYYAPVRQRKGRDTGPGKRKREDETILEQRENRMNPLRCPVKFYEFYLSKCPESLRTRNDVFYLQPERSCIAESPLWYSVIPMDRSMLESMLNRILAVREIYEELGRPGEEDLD

REC114 1–145 (mouse) = molecular target: T3, REC114 1–145 (mouse) (UniProt Q9CWH4); assay: two-hybrid; yeast two-hybrid of ANKRD31C (wild type or Glu-1831 to alanine) with REC114 1–145 (SI Appendix, Fig. S1B); expression of the fragments checked (Fig. S1C)
T3 sequence: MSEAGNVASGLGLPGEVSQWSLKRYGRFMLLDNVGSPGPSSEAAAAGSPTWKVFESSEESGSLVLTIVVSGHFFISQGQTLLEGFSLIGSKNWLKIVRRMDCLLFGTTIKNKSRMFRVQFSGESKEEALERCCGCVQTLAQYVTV

Row | Substance | binding (PTIP) | binding (MEI1) | binding (ZMYM3) | binding (REC114 1–145 (mouse))
1 | ANKRD31 (Ankyrin Repeat Domain Containing 31), full-length wild type (from UniProt A0A140LI88 1-1857) | binds | binds | binds | –
2 | ANKRD31-EA, full-length ANKRD31 with alanine substituted for Glu-1831 (from UniProt A0A140LI88 1-1857) | binds | binds | binds | –
3 | ANKRD31C, ANKRD31 residues 1808–1857 (from UniProt A0A140LI88 1808-1857) (domain or fragment) | – | – | – | binds
